Binding data for one molecule are collected here from paper PMC6735515.

In test [1] the target is T1, Caveolin-1 (mouse (endogenous in mouse neutrophils)) (UniProt P49817).
T1 sequence: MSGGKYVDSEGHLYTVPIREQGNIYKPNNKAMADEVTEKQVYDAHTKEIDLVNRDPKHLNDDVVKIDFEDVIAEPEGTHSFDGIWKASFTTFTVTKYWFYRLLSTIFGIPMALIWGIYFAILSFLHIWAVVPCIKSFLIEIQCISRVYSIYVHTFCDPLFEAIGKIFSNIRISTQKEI
Description: co-IP; whole cell lysates of neutrophils from InP-treated mice (also mouse neutrophils treated with MPLA in vitro); immunoprecipitation with anti-Cav-1 or anti-TLR9 antibody, protein-G agarose, immunoblot for the other protein; control IgG. A general note: A western blot detects proteins with antibodies after separation by electrophoresis.

Test [2] concerns the target T1, Caveolin-1 (mouse (endogenous in mouse neutrophils)). Nature of the test: co-IP; whole cell lysates of neutrophils from non-treated mice (control conditions, no InP); immunoprecipitation with anti-Cav-1 or anti-TLR9 antibody, immunoblot for the other protein.

No constants are given. Whether binding was seen depends on the method and setting. Binding seen in cells or lysates may run through a third protein. Some binding calls cover weakened binding; strength is not graded here.

B1: Toll-like receptor 9 (receptor, UniProt Q9EQU3 26-1032)
chain: LGTLPAFLPCELKPHGLVDCNWLFLKSVPRFSAAASCSNITRLSLISNRIHHLHNSDFVHLSNLRQLNLKWNCPPTGLSPLHFSCHMTIEPRTFLAMRTLEELNLSYNGITTVPRLPSSLVNLSLSHTNILVLDANSLAGLYSLRVLFMDGNCYYKNPCTGAVKVTPGALLGLSNLTHLSLKYNNLTKVPRQLPPSLEYLLVSYNLIVKLGPEDLANLTSLRVLDVGGNCRRCDHAPNPCIECGQKSLHLHPETFHHLSHLEGLVLKDSSLHTLNSSWFQGLVNLSVLDLSENFLYESITHTNAFQNLTRLRKLNLSFNYRKKVSFARLHLASSFKNLVSLQELNMNGIFFRLLNKYTLRWLADLPKLHTLHLQMNFINQAQLSIFGTFRALRFVDLSDNRISGPSTLSEATPEEADDAEQEELLSADPHPAPLSTPASKNFMDRCKNFKFTMDLSRNNLVTIKPEMFVNLSRLQCLSLSHNSIAQAVNGSQFLPLTNLQVLDLSHNKLDLYHWKSFSELPQLQALDLSYNSQPFSMKGIGHNFSFVTHLSMLQSLSLAHNDIHTRVSSHLNSNSVRFLDFSGNGMGRMWDEGGLYLHFFQGLSGLLKLDLSQNNLHILRPQNLDNLPKSLKLLSLRDNYLSFFNWTSLSFLPNLEVLDLAGNQLKALTNGTLPNGTLLQKLDVSSNSIVSVVPAFFALAVELKEVNLSHNILKTVDRSWFGPIVMNLTVLDVRSNPLHCACGAAFVDLLLEVQTKVPGLANGVKCGSPGQLQGRSIFAQDLRLCLDEVLSWDCFGLSLLAVAVGMVVPILHHLCGWDVWYCFHLCLAWLPLLARSRRSAQTLPYDAFVVFDKAQSAVADWVYNELRVRLEERRGRRALRLCLEDRDWLPGQTLFENLWASIYGSRKTLFVLAHTDRVSGLLRTSFLLAQQRLLEDRKDVVVLVILRPDAHRSRYVRLRQRLCRQSVLFWPQQPNGQGGFWAQLSTALTRDNRHFYNQNFCRGPTAE
Take B1: the binding entry is listed as “binds” in test [1] and “binds weakly” in test [2].
